Assay results: ChEMBL document CHEMBL4316593 (Eur J Med Chem, 2019)
This continues a long series; more values of the same kind are listed elsewhere.

Tests used:
Type in all cases: cell-based
Details in all cases: U-87MG ATCC
[1] = Inhibition of RTK/PI3K/AKT/mTOR signaling in human U87 cells assessed as up regulation of ST13 gene expression at cytotoxic IC50 measured after 48 hrs relative to control
[2] = Inhibition of RTK/PI3K/AKT/mTOR signaling in human U87 cells assessed as up regulation of protease, serine 8 gene expression at cytotoxic IC50 measured after 48 hrs relative to control
[3] = Inhibition of RTK/PI3K/AKT/mTOR signaling in human U87 cells assessed as up regulation of APP gene expression at cytotoxic IC50 measured after 48 hrs relative to control
[4] = Inhibition of RTK/PI3K/AKT/mTOR signaling in human U87 cells assessed as up regulation of aminopeptidase puromycin sensitive gene expression at cytotoxic IC50 measured after 48 hrs relative to control
[5] = Inhibition of RTK/PI3K/AKT/mTOR signaling in human U87 cells assessed as up regulation of SYT1 gene expression at cytotoxic IC50 measured after 48 hrs relative to control
[6] = Inhibition of RTK/PI3K/AKT/mTOR signaling in human U87 cells assessed as down regulation of MCOLN3 gene expression at cytotoxic IC50 measured after 48 hrs relative to control
[7] = Inhibition of RTK/PI3K/AKT/mTOR signaling in human U87 cells assessed as up regulation of C1QTNF1 gene expression at cytotoxic IC50 measured after 48 hrs relative to control
[8] = Inhibition of RTK/PI3K/AKT/mTOR signaling in human U87 cells assessed as up regulation of nuclear factor I B gene expression at cytotoxic IC50 measured after 48 hrs relative to control
[9] = Inhibition of RTK/PI3K/AKT/mTOR signaling in human U87 cells assessed as down regulation of KLHL28 gene expression at cytotoxic IC50 measured after 48 hrs relative to control
[10] = Inhibition of RTK/PI3K/AKT/mTOR signaling in human U87 cells assessed as down regulation of EREG gene expression at cytotoxic IC50 measured after 48 hrs relative to control
[11] = Inhibition of RTK/PI3K/AKT/mTOR signaling in human U87 cells assessed as up regulation of DLX4 gene expression at cytotoxic IC50 measured after 48 hrs relative to control
[12] = Inhibition of RTK/PI3K/AKT/mTOR signaling in human U87 cells assessed as down regulation of FBXO22 gene expression at cytotoxic IC50 measured after 48 hrs relative to control
[13] = Inhibition of RTK/PI3K/AKT/mTOR signaling in human U87 cells assessed as down regulation of PHACTR2 gene expression at cytotoxic IC50 measured after 48 hrs relative to control
[14] = Inhibition of RTK/PI3K/AKT/mTOR signaling in human U87 cells assessed as down regulation of ARHGAP31 gene expression at cytotoxic IC50 measured after 48 hrs relative to control
[15] = Inhibition of RTK/PI3K/AKT/mTOR signaling in human U87 cells assessed as up regulation of paralemmin gene expression at cytotoxic IC50 measured after 48 hrs relative to control
[16] = Inhibition of RTK/PI3K/AKT/mTOR signaling in human U87 cells assessed as down regulation of CD163L1 gene expression at cytotoxic IC50 measured after 48 hrs relative to control
[17] = Inhibition of RTK/PI3K/AKT/mTOR signaling in human U87 cells assessed as up regulation of NEURL1 gene expression at cytotoxic IC50 measured after 48 hrs relative to control
[18] = Inhibition of RTK/PI3K/AKT/mTOR signaling in human U87 cells assessed as up regulation of latent transforming growth factor beta binding protein 4 gene expression at cytotoxic IC50 measured after 48 hrs relative to control
[19] = Inhibition of RTK/PI3K/AKT/mTOR signaling in human U87 cells assessed as up regulation of semaphorin 4G gene expression at cytotoxic IC50 measured after 48 hrs relative to control
[20] = Inhibition of RTK/PI3K/AKT/mTOR signaling in human U87 cells assessed as down regulation of EPC1 gene expression at cytotoxic IC50 measured after 48 hrs relative to control
[21] = Inhibition of RTK/PI3K/AKT/mTOR signaling in human U87 cells assessed as down regulation of TRAPPC11 gene expression at cytotoxic IC50 measured after 48 hrs relative to control
[22] = Inhibition of RTK/PI3K/AKT/mTOR signaling in human U87 cells assessed as up regulation of leucine zipper transcription factor like 1 gene expression at cytotoxic IC50 measured after 48 hrs relative to control
[23] = Inhibition of RTK/PI3K/AKT/mTOR signaling in human U87 cells assessed as up regulation of SYDE1 gene expression at cytotoxic IC50 measured after 48 hrs relative to control
[24] = Inhibition of RTK/PI3K/AKT/mTOR signaling in human U87 cells assessed as down regulation of CTSL gene expression at cytotoxic IC50 measured after 48 hrs relative to control
[25] = Inhibition of RTK/PI3K/AKT/mTOR signaling in human U87 cells assessed as down regulation of PCNX2 gene expression at cytotoxic IC50 measured after 48 hrs relative to control
[26] = Inhibition of RTK/PI3K/AKT/mTOR signaling in human U87 cells assessed as up regulation of tripartite motif containing 5 gene expression at cytotoxic IC50 measured after 48 hrs relative to control
[27] = Inhibition of RTK/PI3K/AKT/mTOR signaling in human U87 cells assessed as up regulation of Mov10 RISC complex RNA helicase gene expression at cytotoxic IC50 measured after 48 hrs relative to control
[28] = Inhibition of RTK/PI3K/AKT/mTOR signaling in human U87 cells assessed as down regulation of RRAD gene expression at cytotoxic IC50 measured after 48 hrs relative to control
[29] = Inhibition of RTK/PI3K/AKT/mTOR signaling in human U87 cells assessed as up regulation of UBE2C gene expression at cytotoxic IC50 measured after 48 hrs relative to control
[30] = Inhibition of RTK/PI3K/AKT/mTOR signaling in human U87 cells assessed as up regulation of EMC1 gene expression at cytotoxic IC50 measured after 48 hrs relative to control
[31] = Inhibition of RTK/PI3K/AKT/mTOR signaling in human U87 cells assessed as down regulation of HCCS gene expression at cytotoxic IC50 measured after 48 hrs relative to control
[32] = Inhibition of RTK/PI3K/AKT/mTOR signaling in human U87 cells assessed as up regulation of SEC11A gene expression at cytotoxic IC50 measured after 48 hrs relative to control

Compound: CC(=O)C(=NNc1ccccc1C#N)C(C)=O
- log2FC [1]: 0.428
- log2FC [2]: 0.764
- log2FC [3]: 0.394
- log2FC [4]: 0.772
- log2FC [5]: 1.77
- log2FC [6]: -1.19
- log2FC [7]: 1.93
- log2FC [8]: 1.55
- log2FC [9]: -1.07
- log2FC [10]: -0.539
- log2FC [11]: 1.85
- log2FC [12]: -0.6
- log2FC [13]: -0.866
- log2FC [14]: -2.01
- log2FC [15]: 1.24
- log2FC [16]: -1.7
- log2FC [17]: 2.9
- log2FC [18]: 0.931
- log2FC [19]: 1.19
- log2FC [20]: -1
- log2FC [21]: -0.97
- log2FC [22]: 1.48
- log2FC [23]: 1.8
- log2FC [24]: -0.648
- log2FC [25]: -0.747
- log2FC [26]: 0.71
- log2FC [27]: 0.739
- log2FC [28]: -1.46
- log2FC [29]: 0.628
- log2FC [30]: 0.556
- log2FC [31]: -1.11
- log2FC [32]: 0.591
